This is an account of results in article PMC12431657, “Discovery and mechanistic insights of dibenzoylmethane as a broad spectrum inhibitor of coronavirus” (PLOS Pathogens, 2025).

For this test, the system named is HCoV-229E. The arrangement: species or system Huh-7; HTS, protection from HCoV-229E induced cell death, luminescent cell viability (CellCounting-Lite 2.0), inhibition rate. The following applies: 24 h post infection, 1 h compound pre-incubation, 10 µM, inhibitor.

The structures appear in SMILES notation. Where a name gives a salt, the structure may show the parent alone. Read-outs that look alike come from different tables or passages of the source. Out of some 3,300 compounds screened, about 95 (3%) showed an effect of 50% or more. The list shows a part of the results. Peptide text beside a SMILES is read from it.

`CC(=O)CCC(=O)O` [Levulinic acid]: the “229E Inhibition rate” value was 11.4%.

As to `Cn1c[n+]([C@@H]2O[C@H](CO)[C@@H](O)[C@H]2O)c2nc(N)[nH]c(=O)c21` [7-Methylguanosine], the “229E Inhibition rate” value is on record as 7.1%.

For `C[C@@H]1CC[C@]2(C(=O)O)CC[C@]3(C)C(=CC[C@@H]4[C@@]5(C)CC[C@H](O)[C@@](C)(CO)[C@@H]5CC[C@]43C)[C@@H]2[C@]1(C)O` [Rotundic acid], the “229E Inhibition rate” value is 4.8%.

As to `CC(C)C[C@H](N)C(=O)N[C@@H](Cc1ccccc1)C(=O)O` [Leucyl-phenylalanine] (H-Leu-Phe-OH), the “229E Inhibition rate” value is listed as 8.1%.

Turning to `CCCCCCCC/C=C\CCCCCCCC(=O)O[C@H]1CC[C@@]2(C)C(=CC[C@H]3[C@@H]4CC[C@H]([C@H](C)CCCC(C)C)[C@@]4(C)CC[C@@H]32)C1` [Cholesteryl oleate], the “229E Inhibition rate” value worked out at 8.1%.

Turning to `COc1cc(O)cc(CCc2cccc(O)c2)c1` [Batatasin III], the “229E Inhibition rate” value worked out at 12.4%.

For the compound `N[C@@H](CCSC[C@H](N)C(=O)O)C(=O)O` [L-Cystathionine], the “229E Inhibition rate” value is given as 6.6%.

Consider `O=C(O)[C@@H](O)Cc1ccccc1` [(S)-2-Hydroxy-3-phenylpropanoic acid], for which the “229E Inhibition rate” value is recorded as 0%.

For the compound `CSC[C@H](N)C(=O)O` [S-Methyl-L-cysteine], the “229E Inhibition rate” value is recorded as 14%.

With `O=C1N[C@@H](Cc2c[nH]c3ccccc23)C(=O)N2CCC[C@@H]12` [Brevianamide F], the “229E Inhibition rate” value is recorded as 20.1%.

Turning to `COc1cc2c(cc1O)CC[n+]1cc3c4c(ccc3cc1-2)OCO4` [Groenlandicine], the “229E Inhibition rate” value is reported as 8.1%.

For the compound `COc1ccc(-c2coc3cc(O[C@@H]4O[C@H](CO)[C@@H](O)[C@H](O)[C@H]4O)ccc3c2=O)cc1` [Ononin], the “229E Inhibition rate” value worked out at 10.6%.

Consider `OC1C[C@H]2CC[C@@H](C1)N2` (some centres unmarked) [Nortropine], for which the “229E Inhibition rate” value worked out at 11.4%.

As for `C[C@H]1COC2=C1C(=O)C(=O)c1c2ccc2c1CCCC2(C)C` [Cryptotanshinone], the “229E Inhibition rate” value turned out to be 14.8%.

Consider `C=C1C[C@@]23CC[C@H]4[C@@](C)(CCC[C@@]4(C)C(=O)O[C@@H]4O[C@H](CO)[C@@H](O)[C@H](O)[C@H]4O)[C@@H]2CC[C@]1(O[C@@H]1O[C@H](CO)[C@@H](O)[C@H](O)[C@H]1O[C@@H]1O[C@H](CO)[C@@H](O)[C@H](O)[C@H]1O)C3` [Stevioside], for which the “229E Inhibition rate” value worked out at 0%.

On to `COc1cc(/C=C/C(=O)O[C@H]2[C@H](O)[C@@H](CO)O[C@@]2(CO)O[C@H]2O[C@H](COC(=O)c3ccc(O)cc3)[C@@H](O)[C@H](O)[C@H]2O)cc(OC)c1O` [Tenuifoliside B], for which the “229E Inhibition rate” value came out at 0%.

On to `CC(=O)OC[C@H]1O[C@@H](O[C@@H]2[C@@H](O)[C@H](O[C@@H]3[C@H](O)C(C)(C)C[C@H]4C5=CC[C@@H]6[C@@]7(C)CC[C@H](O[C@@H]8O[C@H](C(=O)O)[C@@H](O)[C@H](O)[C@H]8O[C@@H]8O[C@H](CO)[C@H](O)[C@H](O)[C@H]8O[C@@H]8O[C@H](CO)[C@@H](O)[C@H](O)[C@H]8O)[C@](C)(CO)[C@@H]7CC[C@@]6(C)[C@]5(C)CC[C@@]34C)OC[C@@H]2O)[C@H](OC(C)=O)[C@@H](OC(C)=O)[C@@H]1OC(C)=O` [Soyasaponin Ab], for which the “229E Inhibition rate” value was determined as 46.7%.

In the case of `O[C@H]1[C@H]2c3cc4c(cc3CN3CC[C@H](C[C@@H]1O)[C@H]23)OCO4` [Dihydrolycorine], the “229E Inhibition rate” value was determined as 10.9%.

For `CN(C)C` [Trimethylammonium chloride], the “229E Inhibition rate” value worked out at 6%.

As to `C[C@@]12C[C@@]3(O)O[C@@H](O1)[C@]1(COC(=O)c4ccccc4)[C@@H]3C[C@]12O[C@@H]1O[C@H](COC(=O)c2cc(O)c(O)c(O)c2)[C@@H](O)[C@H](O)[C@H]1O` [Galloylpaeoniflorin], the “229E Inhibition rate” value is 1.9%.

As to `CCc1cnccn1` [2-Ethylpyrazine], the “229E Inhibition rate” value is 16.9%.

Turning to `COc1cc(O)ccc1CCC(=O)c1ccc(O)cc1` [Loureirin C], the “229E Inhibition rate” value is listed as 24.7%.

For `CN1Cc2c(ccc3c2OCO3)[C@@]2(C)[C@@H](O)Cc3cc4c(cc3[C@@H]12)OCO4` [Corynoline], the “229E Inhibition rate” value is reported as 17.1%.

Regarding `COc1cc(O)c(C(=O)/C=C/c2ccccc2)c(O)c1` [Pinostrobin chalcone], the “229E Inhibition rate” value was 0%.

`CC(=O)OC1CC(C)CCC1C(C)C` (centres unmarked) [Menthyl acetate]: the “229E Inhibition rate” value is reported as 23.3%.

On to `OC[C@H]1O[C@@H]2O[C@H]3[C@H](O)[C@@H](O)[C@@H](O[C@H]4[C@H](O)[C@@H](O)[C@@H](O[C@H]5[C@H](O)[C@@H](O)[C@@H](O[C@H]6[C@H](O)[C@@H](O)[C@@H](O[C@H]7[C@H](O)[C@@H](O)[C@@H](O[C@H]8[C@H](O)[C@@H](O)[C@@H](O[C@H]9[C@H](O)[C@@H](O)[C@@H](O[C@H]1[C@H](O)[C@H]2O)O[C@@H]9CO)O[C@@H]8CO)O[C@@H]7CO)O[C@@H]6CO)O[C@@H]5CO)O[C@@H]4CO)O[C@@H]3CO` [γ-Cyclodextrin], for which the “229E Inhibition rate” value stood at 21.1%.

As to `COC(=O)c1ccc(OC)cc1` [Methyl anisate], the “229E Inhibition rate” value is listed as 12.5%.

`COc1ccc2ccc(=O)oc2c1CC(=O)C(C)C` [Isomerazin]: the “229E Inhibition rate” value is given as 17.3%.

For `CC[C@H](CC[C@@H](C)[C@H]1CC[C@H]2[C@@H]3CC=C4C[C@@H](O)CC[C@]4(C)[C@H]3CC[C@]12C)C(C)C` [Beta-Sitosterol (purity>98%)], the “229E Inhibition rate” value (229E Inhibition rate, 24 h) came out at 23.1%.

With `O=C(O)CCc1c[nH]c2ccccc12` [3-Indolepropionic acid], the “229E Inhibition rate” value came out at 23.3%.

On to `N#Cc1cn([C@@H]2O[C@H](CO)[C@@H](O)[C@H]2O)c2ncnc(N)c12` [Toyocamycin], for which the “229E Inhibition rate” value was found to be 15.3%.

Regarding `CCCCCC/C=C\CCCCCCCCCCCC(=O)O` [Paullinic acid], the “229E Inhibition rate” value was found to be 40%.

Take `CC1=CC(=O)C(C(C)C)CC1` (centres unmarked) [Piperitone]: the “229E Inhibition rate” value was 19.5%.

Consider `CCCCCCCCCCCCCCCC(=O)OCC` [Ethyl palmitate], for which the “229E Inhibition rate” value was 17.7%.

`OC[C@@H](O)[C@H](O)[C@@H](O)CO` [Xylitol]: the “229E Inhibition rate” value was determined as 29.9%.

For the compound `COc1ccc(/C=C/C(=O)c2c(O)cc(O[C@@H]3O[C@H](CO[C@@H]4O[C@@H](C)[C@H](O)[C@@H](O)[C@H]4O)[C@@H](O)[C@H](O)[C@H]3O)cc2OC)cc1O` [Hesperidin methylchalcone], the “229E Inhibition rate” value was found to be 36.6%.

Consider `CCCCCC1CCCC(=O)O1` (centres unmarked) [δ-Decalactone], for which the “229E Inhibition rate” value was 16.6%.

Turning to `O=C1CC[C@H](NC(=O)Cc2ccccc2)C(=O)N1` [Antineoplaston A10], the “229E Inhibition rate” value is recorded as 7.8%.

For the compound `COc1cccc(O)c1-c1cc(=O)c2c(O)c(OC)c(OC)c(OC)c2o1` [Skullcapflavone II], the “229E Inhibition rate” value is reported as 14.2%.

Consider `O=C(O)C(=O)c1ccccc1` [Phenylglyoxylic acid], for which the “229E Inhibition rate” value was 0%.

As to `COc1cc(/C=C/C(=O)N2CCC=CC2=O)cc(OC)c1OC` [Piperlongumine], the “229E Inhibition rate” value is 3.4%.

Take `Cc1ncc([N+](=O)[O-])n1CC(O)CCl` (centres unmarked) [Ornidazole]: the “229E Inhibition rate” value is 23.7%.

Take `CC(C)c1cc2c(c(O)c1O)[C@@]13CCCC(C)(C)[C@@H]1[C@H](OC3=O)[C@H]2O` [Rosmanol]: the “229E Inhibition rate” value amounted to 0%.

`C[C@@H]1CC[C@]2(C(=O)O)CC[C@]3(C)C(=CC[C@@H]4[C@@]5(C)CC[C@H](O)C(C)(C)[C@@H]5CC[C@]43C)[C@@H]2[C@]1(C)O` [Pomolic acid]: the “229E Inhibition rate” value was determined as 5.3%.

On to `NC(C(=O)O)C(=O)O` [Aminomalonic acid], for which the “229E Inhibition rate” value came to 7.3%.

`COc1cc([C@H]2c3cc(O)c(OC)cc3C[C@@H](CO)[C@@H]2CO)ccc1O` [(+)-Isolariciresinol]: the “229E Inhibition rate” value is 0%.

`N=C(N)N` [Guanidine (hydrochloride)]: the “229E Inhibition rate” value stood at 9%.

On to `CCCCCC/C=C\CCCCCCCc1cccc(O)c1C(=O)O` [Ginkgolic Acid], for which the “229E Inhibition rate” value is on record as 13.6%.

Take `O=C1Cc2ccccc2N1` [Oxindole]: the “229E Inhibition rate” value is 15.9%.

As for `Cn1cncc1CCN` [3-Methylhistamine (dihydrochloride)], the “229E Inhibition rate” value amounted to 13.5%.

For the compound `O=C(O)CCC(=O)O` [Succinic acid], the “229E Inhibition rate” value (229E Inhibition rate, 24 h) is on record as 11.1%.

As to `C=C1C[C@@]23CC[C@H]4[C@@](C)(CCC[C@@]4(C)C(=O)O[C@@H]4O[C@H](CO)[C@@H](O)[C@H](O)[C@H]4O)[C@@H]2CC[C@]1(O[C@@H]1O[C@H](CO)[C@@H](O)[C@H](O)[C@H]1O[C@@H]1O[C@H](CO)[C@@H](O)[C@H](O[C@@H]2O[C@H](CO)[C@@H](O)[C@H](O)[C@H]2O)[C@H]1O)C3` [Rebaudioside A], the “229E Inhibition rate” value is listed as 11.5%.

For the compound `O=C(O)/C=C\c1ccc2occc2c1O[C@@H]1O[C@H](CO)[C@@H](O)[C@H](O)[C@H]1O` [Isopsoralenoside], the “229E Inhibition rate” value turned out to be 15.3%.

Regarding `CCC/C=C1\OC(=O)C2=C1CCC=C2` [(Z)-Ligustilide], the “229E Inhibition rate” value is reported as 17.8%.

For `CC(C)=CCC/C(C)=C/COc1c2ccoc2cc2oc(=O)ccc12` [Bergamottin], the “229E Inhibition rate” value came to 4.6%.

Consider `Nc1nc2c(ncn2[C@H]2C[C@H](O)[C@@H](CO)O2)c(=O)[nH]1` [2'-Deoxyguanosine], for which the “229E Inhibition rate” value (229E Inhibition rate, 24 h) is 7.2%.

For `OC[C@H]1OC(O)[C@H](O)[C@H](O)[C@@H]1O` (stereo partly drawn) [D-Allose], the “229E Inhibition rate” value amounted to 0%.

As for `COC(=O)C1=CO[C@@H](O[C@@H]2O[C@H](CO)[C@@H](O)[C@H](O)[C@H]2O)[C@@H]2[C@H](C)O[C@@H](O)C[C@H]12` [Morroniside], the “229E Inhibition rate” value is given as 10%.

With `O=C1c2c(O)cc(O)cc2O[C@H](c2ccc(O)cc2)[C@H]1O` [Dihydrokaempferol], the “229E Inhibition rate” value came to 9.9%.

As for `COc1cc(O)c2c(=O)c(O)c(-c3ccc(O)c(O)c3)oc2c1` [Rhamnetin], the “229E Inhibition rate” value is 23.8%.

On to `CCCCC(C)CCC(=O)O` (centres unmarked) [4-Methyloctanoic acid], for which the “229E Inhibition rate” value is 20.3%.

As to `CC(=O)N[C@@H](CCC(N)=O)C(=O)O` [Aceglutamide], the “229E Inhibition rate” value turned out to be 11.5%.
